Reference: paper PMC12431657, “Discovery and mechanistic insights of dibenzoylmethane as a broad spectrum inhibitor of coronavirus” (PLOS Pathogens, 2025)
Structures can show the parent of a compound that is named as a salt. Where two headings read alike, the source gives them in different places. Screen size: about 3,300 compounds; about 60 (2%) showed an effect of 50% or more. This is one part of the list.

Tested on: HCoV-OC43
Parameters: species or system RD; HTS, protection from HCoV-OC43 induced cell death, luminescent cell viability (CellCounting-Lite 2.0), inhibition rate
Conditions: 24 h post infection, 1 h compound pre-incubation, 10 µM, inhibitor

| Structure (SMILES) | OC43 Inhibition rate | OC43 Inhibition rate (OC43 Inhibition rate, 24 h) |
| --- | --- | --- |
| O=C[C@H](O)[C@@H](O)[C@@H](CO)O[C@@H]1OC[C@@H](O[C@@H]2OC[C@@H](O[C@@H]3OC[C@@H](O[C@@H]4OC[C@@H](O)[C@H](O)[C@H]4O)[C@H](O)[C@H]3O)[C@H](O)[C@H]2O)[C@H](O)[C@H]1O [1,4-b-D-Xylopentaose] | 6% | – |
| OC[C@H]1OC(O[C@H]2[C@H](O)[C@@H](CO)OC(O[C@H]3[C@H](O)[C@@H](CO)OC(O)[C@@H]3O)[C@@H]2O)[C@H](O)[C@@H](O)[C@@H]1O (some centres unmarked) [Laminaran] | -0.3% | – |
| C[C@@H]([C@H](C)O)[C@H](N)C(=O)O [(2S,3R,4S)-4-Hydroxyisoleucine] | -1.8% | – |
| C/C(=C\C(=O)CC(C)C(=O)O)[C@H]1C[C@H](O)[C@@]2(C)C3=C(C(=O)C[C@]12C)[C@@]1(C)CCC(=O)C(C)(C)[C@@H]1C[C@@H]3O (some centres unmarked) [Ganoderenic acid A] | -0.5% | – |
| CC(C)[C@@H]1CC[C@@H](C)C[C@H]1O [(-)-Menthol] | – | -0.7% |
| O=C(/C=C/c1ccc(O)c(O)c1)O[C@@H]1C[C@](OC(=O)/C=C/c2ccc(O)c(O)c2)(C(=O)O)C[C@@H](O)[C@H]1O [1,3-Dicaffeoylquinic acid] | 0.6% | – |
| COc1cc([C@@H]2Oc3c(O)cc([C@H]4Oc5cc(O)cc(O)c5C(=O)[C@@H]4O)cc3[C@H]2CO)ccc1O [Silychristin] | -0.5% | – |
| COC(=O)c1ccccc1O [Methyl Salicylate] | 8% | – |
| O=C(O)c1ccc2ccccc2c1O [1-Hydroxy-2-naphthoic acid] | -0.4% | – |
| O=C1O[C@H]2[C@@H]3OC(=O)c4cc(O)c(O)c(O)c4-c4c(O)c(O)c5oc(=O)c6c(c(O)c(O)c7oc(=O)c4c5c76)-c4c(cc(O)c(O)c4O)C(=O)OC[C@H]3OC(O)[C@@H]2OC(=O)c2cc(O)c(O)c(O)c2-c2c1cc(O)c(O)c2O (mixture of isomers) [Punicalagin] | -1.3% | – |
| c1csc(-c2ccc(-c3cccs3)s2)c1 [2,2':5',2''-Terthiophene] | -0.6% | – |
| OCC1=C[C@@H](O)[C@@H]2C=CO[C@@H](O[C@@H]3O[C@H](CO)[C@@H](O)[C@H](O)[C@H]3O)[C@H]12 [Aucubin] | -2.1% | – |
| O=c1c(O)c(-c2ccc(O[C@@H]3O[C@H](CO)[C@@H](O)[C@H](O)[C@H]3O)c(O)c2)oc2cc(O)cc(O)c12 [Spiraeoside] | -0.7% | – |
| COc1c(O[C@@H]2O[C@H](CO[C@@H]3OC[C@@H](O)[C@H](O)[C@H]3O)[C@@H](O)[C@H](O)[C@H]2O)cc2occ(-c3ccc(O)cc3)c(=O)c2c1O [Tectorigenin 7-O-Xylosyl Glucoside] | 1.7% | – |
| CN(C)c1nc2c(ncn2[C@@H]2O[C@H](CO)[C@@H](O)[C@H]2O)c(=O)[nH]1 [N2,N2-Dimethylguanosine] | -0.5% | – |
| CC(=O)NCCc1c[nH]c2ccc(O)cc12 [N-Acetyl-5-hydroxytryptamine] | 0% | – |
| COc1ccc([C@H]2OC[C@H]3[C@@H]2CO[C@@H]3c2ccc(OC)c(OC)c2)cc1OC [Pinoresinol dimethyl ether] | – | 1.1% |
| O=c1ccc2ccc(O)c(O)c2o1 [Daphnetin] | -1.8% | – |
| C=C[C@H]1CN2CC[C@]3(C(=O)Nc4ccccc43)[C@@H]2C[C@@H]1/C(=C\OC)C(=O)OC [Corynoxeine] | -0.3% | – |
| NCCCCCCCC(=O)O [8-Aminooctanoic acid] | -7.3% | – |
| C=C1C(=O)O[C@@H]2/C=C(\C)[C@@H](OC(C)=O)C/C=C(\COC(C)=O)C[C@@H](OC(=O)/C(C)=C/CO)[C@@H]12 [Eupalinolide A] | – | 4.1% |
| OC[C@H]1O[C@@](CO)(O[C@H]2O[C@H](CO[C@@H]3O[C@H](CO)[C@@H](O)[C@H](O)[C@H]3O)[C@@H](O)[C@H](O)[C@H]2O)[C@@H](O)[C@@H]1O [Gentianose] | 0.1% | – |
| C[C@]1(O)C[C@@H](O)[C@@H]2C=CO[C@@H](O[C@@H]3O[C@H](CO)[C@@H](O)[C@H](O)[C@H]3O)[C@@H]21 [Ajugol] | -0.3% | – |
| O=C(O)Cc1cc(O)ccc1O [Homogentisic acid] | -1.2% | – |
| N[C@@H](CS)C(=O)O [L-Cysteine (hydrochloride)] | – | 0% |
| Nc1nc2c(ncn2[C@@H]2O[C@H](COP(=O)(O)OP(=O)(O)OP(=O)(O)O)[C@@H](O)[C@H]2O)c(=O)[nH]1 [Guanosine 5'-triphosphate (trisodium salt)] | -0.5% | – |
| O=C(O)c1cc(=O)[nH]c(=O)[nH]1 [Orotic acid] | – | 0.8% |

| Structure (SMILES) | OC43 Inhibition rate | OC43 Inhibition rate (OC43 Inhibition rate, 24 h) |
| --- | --- | --- |
| N[C@H](CS)C(=O)O [D-Cysteine] | 0.2% | – |
| Cn1c(N)nc2c(ncn2[C@@H]2O[C@H](CO)[C@@H](O)[C@H]2O)c1=O [1-Methylguanosine] | 0.9% | – |
| COC(=O)[C@]1(O)C[C@@H](O)[C@@H](O)[C@H](OC(=O)/C=C/c2ccc(O)c(O)c2)C1 [3-O-Caffeoylquinic acid methyl ester] | -0.4% | – |
| C[C@@H](O)CC(=O)O [(R)-3-Hydroxybutanoic acid] | – | -0.8% |
| CC(=O)c1ccc(C)cc1 [4'-Methylacetophenone] | -0.5% | – |
| CC(C)c1ccc2c(c1O)CC[C@H]1C3=C(CC[C@]21C)C(=O)OC3 [Triptophenolide] | -0.9% | – |
| O=c1cc(-c2ccc(O)cc2)oc2c([C@@H]3O[C@H](CO)[C@@H](O)[C@H](O)[C@H]3O)c(O)c([C@@H]3OC[C@@H](O)[C@H](O)[C@H]3O)c(O)c12 [Vicenin-1] | -1.7% | – |
| CC1(C)CC[C@]2(C(=O)O)CC[C@]3(C)C(=CC[C@@H]4[C@@]5(C)C[C@@H](O)[C@H](O)[C@@](C)(CO)[C@@H]5[C@H](O)C[C@]43C)[C@@H]2C1 [Terminolic acid] | -0.1% | – |
| O=C(O)/C=C/C=C/C(=O)O [trans-trans-Muconic acid] | -1.3% | – |
| COc1cc2c(c(OC)c1OC)-c1c(cc3c(c1OC)OCO3)[C@H](OC(=O)c1ccccc1)[C@@](C)(O)[C@@H](C)C2 [Gomisin G] | 3% | – |
| C[C@H]1[C@H](C)CC[C@]2(C(=O)O)CC[C@]3(C)C(=CC[C@@H]4[C@@]5(C)C[C@@H](O)[C@H](O)[C@@](C)(CO)[C@@H]5CC[C@]43C)[C@H]12 [Asiatic acid] | -2.6% | – |
| CC1(C)CC[C@]2(CO)CC[C@]3(C)C(=CC[C@@H]4[C@@]5(C)CC[C@H](O)C(C)(C)[C@@H]5CC[C@]43C)[C@@H]2C1 [Erythrodiol] | -2.8% | – |
| C[C@H](CC[C@@H](O[C@@H]1O[C@H](CO)[C@@H](O)[C@H](O)[C@H]1O)C(C)(C)O)[C@H]1CC[C@@]2(C)[C@@H]3CC=C4[C@@H](CC[C@H](O)C4(C)C)[C@]3(C)[C@H](O)C[C@]12C [Mogroside I A1] | -0.2% | – |
| CCCCCCCCCCCCCCCCCCCCCCCC(=O)O [Lignoceric acid] | 3.8% | – |
| O=C(/C=C/c1ccc(O)c(O)c1)O[C@@H](C(=O)O)[C@@H](OC(=O)/C=C/c1ccc(O)c(O)c1)C(=O)O [Chicoric acid] | – | 1.8% |
| CC(C)(C)CC(C)(C)c1ccc(O)c(Cc2ccc(Cl)cc2Cl)c1 [Clofoctol] | -0.9% | – |
| COc1cc([C@H]2OC[C@@H]3[C@@H]2CO[C@H]3c2cc(OC)c(O[C@@H]3O[C@H](CO)[C@@H](O)[C@H](O)[C@H]3O)c(OC)c2)cc(OC)c1O[C@@H]1O[C@H](CO)[C@@H](O)[C@H](O)[C@H]1O [Eleutheroside E] | -0.2% | – |
| O=c1c(O)cc([C@H]2Oc3cc(O)cc(O)c3C[C@H]2O)cc2c([C@H]3Oc4cc(O)cc(O)c4C[C@H]3O)cc(O)c(O)c12 [Theaflavin] | -2.4% | – |
| N[C@@H](Cc1ccc(O)cc1)C(=O)O [L-Tyrosine] | -0.1% | – |
| C[C@@H]1O[C@@H](O[C@H]2[C@H](O[C@H]3CC[C@]4(C)[C@H]5CC=C6[C@@H]7CC(C)(C)CC[C@]7(C(=O)O[C@@H]7O[C@H](CO[C@@H]8O[C@H](CO)[C@@H](O[C@@H]9O[C@@H](C)[C@H](O)[C@@H](O)[C@H]9O)[C@H](O)[C@H]8O)[C@@H](O)[C@H](O)[C@H]7O)CC[C@@]6(C)[C@]5(C)CC[C@H]4C3(C)C)OC[C@H](O)[C@@H]2O)[C@H](O)[C@H](O)[C@H]1O [Hederasaponin B] | 1.9% | – |
| CC1C(=O)CCC1=O [2-Methylcyclopentane-1,3-dione] | 1.4% | – |
| COc1ccc(-c2oc3c(CCC(C)(C)O)c(O[C@@H]4O[C@H](CO)[C@@H](O)[C@H](O)[C@H]4O)cc(O)c3c(=O)c2O)cc1 [Maohuoside A] | 0.3% | – |
| COC(=O)[C@H]1[C@H]2C[C@@H]3c4[nH]c5cc(OC)ccc5c4CCN3C[C@H]2C[C@@H](OC(=O)c2cc(OC)c(OC)c(OC)c2)[C@@H]1OC [Reserpine] | – | 22.9% |
| COc1cc(C(C)=O)ccc1O [Apocynin] | 0.3% | – |
| CC(=O)O[C@H]1C[C@H]2C(=O)O[C@H](c3ccoc3)C[C@@]2(C)[C@@H]2C[C@@H]3C[C@@H](C(=O)O3)[C@@H]12 [8-Epidiosbulbin E acetate] | -0.7% | – |
| O=C(/C=C/c1ccc(O)c(O)c1)O[C@@H]1[C@H](O)C[C@@](O)(C(=O)O)C[C@H]1OC(=O)/C=C/c1ccc(O)c(O)c1 [4,5-Dicaffeoylquinic acid] | -0.7% | – |

Of the compounds above, 3 have four or more nitrogen atoms:

| Structure (SMILES) | OC43 Inhibition rate | OC43 Inhibition rate (OC43 Inhibition rate, 24 h) |
| --- | --- | --- |
| CN(C)c1nc2c(ncn2[C@@H]2O[C@H](CO)[C@@H](O)[C@H]2O)c(=O)[nH]1 [N2,N2-Dimethylguanosine] | -0.5% | – |
| Nc1nc2c(ncn2[C@@H]2O[C@H](COP(=O)(O)OP(=O)(O)OP(=O)(O)O)[C@@H](O)[C@H]2O)c(=O)[nH]1 [Guanosine 5'-triphosphate (trisodium salt)] | -0.5% | – |
| Cn1c(N)nc2c(ncn2[C@@H]2O[C@H](CO)[C@@H](O)[C@H]2O)c1=O [1-Methylguanosine] | 0.9% | – |
